Laboratory results taken from patent publication US20230183336A1 (MODMAB THERAPEUTICS, published 2023).

B1: LRP5-A7 (antibody, V domains shown)
VH: EVQLVESGGGLVQPGGSLRLSCAASGFNLSYSSMHWVRQAPGKGLEWVASIYPYYGYTYYADSVKGRFTISADTSKNTAYLQMNSLRAEDTAVYYCARHGAMDYWGQGTLVTVSS
VL: DIQMTQSPSSLSASVGDRVTITCRASQSVSSAVAWYQQKPGKAPKLLIYSASSLYSGVPSRFSGSRSGTDFTLTISSLQPEDFATYYCQQAWGWGLFTFGQGTKVEIKR
notes: Fab-phage in the screen; also called LRP5-47
B2: LRP5-E5 (antibody, V domains shown)
VH: EVQLVESGGGLVQPGGSLRLSCAASGFNIYSYSIHWVRQAPGKGLEWVASIYPYSSYTSYADSVKGRFTISADTSKNTAYLQMNSLRAEDTAVYYCARYAVYFPGYYWGMDYWGQGTLVTVSS
VL: B1 VL with A91Y, W92H, G93Y, W94Y, G95Y
notes: Fab-phage in the screen
B3: LRP5-C5 (antibody, V domains shown)
VH: EVQLVESGGGLVQPGGSLRLSCAASGFNFSSSSIHWVRQAPGKGLEWVASISSSYGYTYYADSVKGRFTISADTSKNTAYLQMNSLRAEDTAVYYCARSSYYSSVSSSVYALDYWGQGTLVTVSS
VL: B1 VL with A91Y, W92Q, G93Y, W94S, F97I
B4: LRP5-R3_E8 (antibody, V domains shown)
VH: B1 VH with S30Y, Y52S, P53S, Y59S, H99Y, G100W, M102L
VL: B1 VL with A91V, W92S, G93Y, W94Y, G95P, F97I
B5: LRP5-C12 (antibody, V domains shown)
VH: EVQLVESGGGLVQPGGSLRLSCAASGFNFSSSSIHWVRQAPGKGLEWVASIYSSYGSTSYADSVKGRFTISADTSKNTAYLQMNSLRAEDTAVYYCARTVRGSKKPYFSGWAMDYWGQGTLVTVSS
VL: B1 VL with A91F, W92S, G93H, W94V, G95S, F97I
notes: Fab-phage in the screen
B6: LRP5-H5 (antibody, V domains shown)
VH: EVQLVESGGGLVQPGGSLRLSCAASGFNLSYSSIHWVRQAPGKGLEWVASISSSYGSTSYADSVKGRFTISADTSKNTAYLQMNSLRAEDTAVYYCARGYWAIDYWGQGTLVTVSS
VL: DIQMTQSPSSLSASVGDRVTITCRASQSVSSAVAWYQQKPGKAPKLLIYSASSLYSGVPSRFSGSRSGTDFTLTISSLQPEDFATYYCQQPVGHYGYPITFGQGTKVEIKR
notes: Fab-phage in the screen
B7: LRP5-A9 (antibody, V domains shown)
VH: EVQLVESGGGLVQPGGSLRLSCAASGFNISSYSIHWVRQAPGKGLEWVASSSYYGYTYYADSVKGRFTISADTSKNTAYLQMNSLRAEDTAVYYCARTVRGSKKPYFSGWAMDYWGQGTLVTVSS
VL: B6 VL with P91V, V92H, G93Y, H94S, Y95P, G96Y, Y97S, P98L
notes: Fab-phage in the screen
B8: LRP5-H9 (antibody, V domains shown)
VH: EVQLVESGGGLVQPGGSLRLSCAASGFNIYSYYIHWVRQAPGKGLEWVASIYSYYGYTYYADSVKGRFTISADTSKNTAYLQMNSLRAEDTAVYYCARSYPAMDYWGQGTLVTVSS
VL: DIQMTQSPSSLSASVGDRVTITCRASQSVSSAVAWYQQKPGKAPKLLIYSASSLYSGVPSRFSGSRSGTDFTLTISSLQPEDFATYYCQQSSYSPITFGQGTKVEIKR
notes: Fab-phage in the screen
B9: LRP5-G9 (antibody, V domains shown)
VH: EVQLVESGGGLVQPGGSLRLSCAASGFNISYSYIHWVRQAPGKGLEWVASIYSSYGYTYYADSVKGRFTISADTSKNTAYLQMNSLRAEDTAVYYCARWGAYHSSGYGMDYWGQGTLVTVSS
VL: B8 VL with Y93S
notes: Fab-phage in the screen
B10: LRP5-D9 (antibody, V domains shown)
VH: EVQLVESGGGLVQPGGSLRLSCAASGFNISYSYIHWVRQAPGKGLEWVASIYSSYGYTYYADSVKGRFTISADTSKNTAYLQMNSLRAEDTAVYYCARHYSYFFYAMDYWGQGTLVTVSS
VL: B8 VL with S91A
notes: Fab-phage in the screen
B11: LRP5-R3O_G6 (antibody, V domains shown)
VH: EVQLVESGGGLVQPGGSLRLSCAASGFNISSYSMHWVRQAPGKGLEWVAYISPYYGYTSYADSVKGRFTISADTSKNTAYLQMNSLRAEDTAVYYCARGWGSPASAGYYGLDYWGQGTLVTVSS
VL: B8 VL with P95L
B12: LRP5-G2 (antibody, V domains shown)
VH: EVQLVESGGGLVQPGGSLRLSCAASGFNLSYYYMHWVRQAPGKGLEWVASIYSSYGYTYYADSVKGRFTISADTSKNTAYLQMNSLRAEDTAVYYCARWSHVSGHYSGMDYWGQGTLVTVSS
VL: B8 VL with S91A, S94A
B13: LRP5-G10 (antibody, V domains shown)
VH: EVQLVESGGGLVQPGGSLRLSCAASGFNFSSSSIHWVRQAPGKGLEWVASISSSYGYTYYADSVKGRFTISADTSKNTAYLQMNSLRAEDTAVYYCARGGSGVSHYGSVYYSWWALDYWGQGTLVTVSS
VL: B8 VL with P95L
B14: LRP5-G11 (antibody, V domains shown)
VH: EVQLVESGGGLVQPGGSLRLSCAASGFNISYSYIHWVRQAPGKGLEWVASIYPSYGYTYYADSVKGRFTISADTSKNTAYLQMNSLRAEDTAVYYCARAAPYYGYYYSYAMDYWGQGTLVTVSS
VL: DIQMTQSPSSLSASVGDRVTITCRASQSVSSAVAWYQQKPGKAPKLLIYSASSLYSGVPSRFSGSRSGTDFTLTISSLQPEDFATYYCQQGVSLITFGQGTKVEIKR
notes: Fab-phage in the screen
B15: LRP5-H3 (antibody, V domains shown)
VH: EVQLVESGGGLVQPGGSLRLSCAASGFNLYYYYIHWVRQAPGKGLEWVASISPYYGYTSYADSVKGRFTISADTSKNTAYLQMNSLRAEDTAVYYCARSGYGWYAMDYWGQGTLVTVSS
VL: B14 VL with G91Y, V92W, S93F
notes: Fab-phage in the screen

molecular target: recombinant LRP5 ECD; test: Fab-phage ELISA on immobilized recombinant LRP5 ECD

| Binder | binding |
| --- | --- |
| B1 | binds |
| B2 | binds |
| B3 | binds |
| B4 | binds |
| B5 | binds |
| B6 | binds |
| B7 | binds |
| B8 | binds |
| B9 | binds |
| B10 | binds |
| B11 | binds |
| B12 | binds |
| B13 | binds |
| B14 | binds |
| B15 | binds |

Changes are numbered by the printed parent chain. No constants are given. Whether binding was seen depends on the method and setting. A result given as binding can be weak or reduced; the word gives no strength.
